Two substances from publication PMC3237552 can be followed below.

Protein sequences, listed by entry. Tags and fused reporters are not part of them. Residues count along the entry.
UniProt P03950, residues 25-147: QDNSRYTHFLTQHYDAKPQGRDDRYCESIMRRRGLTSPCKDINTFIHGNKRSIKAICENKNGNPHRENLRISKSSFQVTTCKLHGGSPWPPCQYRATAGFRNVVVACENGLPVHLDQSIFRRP
UniProt P35579: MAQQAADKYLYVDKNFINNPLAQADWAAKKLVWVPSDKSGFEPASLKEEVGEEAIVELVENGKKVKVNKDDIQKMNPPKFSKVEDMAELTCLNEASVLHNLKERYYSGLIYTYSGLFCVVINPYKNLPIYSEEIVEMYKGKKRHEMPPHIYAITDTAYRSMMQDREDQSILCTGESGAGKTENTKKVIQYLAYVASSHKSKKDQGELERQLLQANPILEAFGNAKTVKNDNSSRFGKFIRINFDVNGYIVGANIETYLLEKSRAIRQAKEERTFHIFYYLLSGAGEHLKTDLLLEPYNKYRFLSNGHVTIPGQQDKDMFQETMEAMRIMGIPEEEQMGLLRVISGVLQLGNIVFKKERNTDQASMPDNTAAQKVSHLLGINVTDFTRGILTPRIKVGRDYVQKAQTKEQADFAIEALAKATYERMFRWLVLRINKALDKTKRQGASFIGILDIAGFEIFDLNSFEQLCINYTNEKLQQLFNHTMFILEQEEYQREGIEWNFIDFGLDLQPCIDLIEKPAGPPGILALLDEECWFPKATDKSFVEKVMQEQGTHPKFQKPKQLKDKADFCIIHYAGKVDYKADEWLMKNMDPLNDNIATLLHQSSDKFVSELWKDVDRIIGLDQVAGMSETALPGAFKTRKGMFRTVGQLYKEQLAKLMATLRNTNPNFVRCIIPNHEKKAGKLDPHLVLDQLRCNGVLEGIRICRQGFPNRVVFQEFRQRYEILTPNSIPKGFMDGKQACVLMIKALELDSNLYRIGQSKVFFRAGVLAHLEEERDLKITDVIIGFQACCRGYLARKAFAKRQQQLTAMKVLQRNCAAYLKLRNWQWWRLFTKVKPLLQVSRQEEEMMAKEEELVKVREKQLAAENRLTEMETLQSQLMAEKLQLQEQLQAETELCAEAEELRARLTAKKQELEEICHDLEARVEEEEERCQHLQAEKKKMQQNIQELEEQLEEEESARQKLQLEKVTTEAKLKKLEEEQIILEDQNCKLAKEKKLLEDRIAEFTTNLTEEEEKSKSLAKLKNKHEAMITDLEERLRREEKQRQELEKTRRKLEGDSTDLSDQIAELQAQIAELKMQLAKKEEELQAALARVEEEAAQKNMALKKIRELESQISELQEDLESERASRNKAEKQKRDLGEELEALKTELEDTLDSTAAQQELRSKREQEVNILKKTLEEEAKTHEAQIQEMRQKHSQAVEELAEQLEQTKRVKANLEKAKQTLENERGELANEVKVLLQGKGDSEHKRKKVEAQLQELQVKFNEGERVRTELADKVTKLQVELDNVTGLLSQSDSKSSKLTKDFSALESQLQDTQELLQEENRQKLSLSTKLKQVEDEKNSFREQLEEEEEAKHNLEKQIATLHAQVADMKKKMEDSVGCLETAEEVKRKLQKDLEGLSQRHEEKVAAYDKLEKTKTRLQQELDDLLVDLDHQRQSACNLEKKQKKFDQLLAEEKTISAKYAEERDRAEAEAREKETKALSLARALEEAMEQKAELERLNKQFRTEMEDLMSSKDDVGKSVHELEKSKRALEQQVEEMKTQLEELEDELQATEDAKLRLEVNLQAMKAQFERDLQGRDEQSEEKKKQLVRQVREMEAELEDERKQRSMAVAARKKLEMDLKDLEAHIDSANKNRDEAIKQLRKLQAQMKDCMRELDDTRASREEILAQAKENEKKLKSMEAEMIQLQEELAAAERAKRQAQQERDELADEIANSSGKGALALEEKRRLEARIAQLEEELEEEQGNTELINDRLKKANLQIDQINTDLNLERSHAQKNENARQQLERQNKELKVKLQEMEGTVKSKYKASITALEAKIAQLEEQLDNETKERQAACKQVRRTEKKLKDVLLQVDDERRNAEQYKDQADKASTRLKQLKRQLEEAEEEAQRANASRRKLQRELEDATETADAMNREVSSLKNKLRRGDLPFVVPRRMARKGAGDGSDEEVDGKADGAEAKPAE
UniProt O43707: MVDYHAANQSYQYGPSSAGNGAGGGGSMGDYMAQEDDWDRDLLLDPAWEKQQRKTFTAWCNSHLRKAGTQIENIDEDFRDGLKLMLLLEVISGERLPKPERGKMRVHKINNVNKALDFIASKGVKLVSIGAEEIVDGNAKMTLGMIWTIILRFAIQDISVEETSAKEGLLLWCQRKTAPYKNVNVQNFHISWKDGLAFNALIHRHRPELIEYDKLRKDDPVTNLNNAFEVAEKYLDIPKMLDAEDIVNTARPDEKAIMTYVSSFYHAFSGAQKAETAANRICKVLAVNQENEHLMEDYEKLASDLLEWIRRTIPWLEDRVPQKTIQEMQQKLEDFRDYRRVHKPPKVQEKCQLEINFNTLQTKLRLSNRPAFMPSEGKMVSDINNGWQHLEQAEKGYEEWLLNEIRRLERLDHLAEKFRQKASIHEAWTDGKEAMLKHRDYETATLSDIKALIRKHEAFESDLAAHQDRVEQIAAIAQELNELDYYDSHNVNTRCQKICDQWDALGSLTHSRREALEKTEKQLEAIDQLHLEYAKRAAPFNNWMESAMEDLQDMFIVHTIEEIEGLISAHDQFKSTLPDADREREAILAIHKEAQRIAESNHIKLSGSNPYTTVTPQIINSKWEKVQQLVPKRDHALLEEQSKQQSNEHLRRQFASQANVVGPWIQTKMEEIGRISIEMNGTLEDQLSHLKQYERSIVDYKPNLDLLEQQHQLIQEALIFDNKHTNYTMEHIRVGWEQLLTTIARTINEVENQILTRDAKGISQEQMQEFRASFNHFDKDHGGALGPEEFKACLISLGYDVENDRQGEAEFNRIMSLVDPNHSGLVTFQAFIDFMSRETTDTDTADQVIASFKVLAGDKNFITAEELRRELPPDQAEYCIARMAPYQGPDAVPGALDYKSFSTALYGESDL

No constants are given. Whether binding was seen depends on the method and setting. Binding seen in cells or lysates may run through a third protein. Some entries that bind do so weakly or less than the wild type.

This experiment deals with Angiogenin (human (endogenous in HeLa)) (UniProt P03950). Put plainly: co-IP; HeLa cells with or without exogenous ANG, RIPA lysates; immunoprecipitation with goat anti-ANG antibody or goat IgG; blots with anti-MYH9, anti-ACTN4, anti-ACTB and anti-ANG.

Turning to Myosin-9 (from UniProt P35579 1-1960), the binding result is listed as “binds”.

Regarding “Alpha-actinin-4 (from UniProt O43707 1-911)”, the binding entry is “binds”.
